PubChem BioAssay AID1259424 | University of Nebraska Medical Center – 2018

Purpose: 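Seek colon cancer survival genes behaving like KSR1, using a six-gene signature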 (primary screen)
System: human HCT116 colon cancer cells
Reagent: siRNA pool against human genes, 50 nM
Detection: 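Log2 levels of six mRNAs (branched-DNA multiplex), adjusted by two reference genes and the non-targeting median, then scored against the average KSR1 knockdown pattern as Pearson r and euclidean distance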
Direction: mean correlation with KSR1 profile: higher = expression change more like KSR1 knockdown; mean distance from KSR1 profile: higher = expression change less like KSR1 knockdown
Shown is an unselected part of about 14,000 reagents. 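Higher correlation or smaller distance means closer resemblance to KSR1 loss; control wells, including KSR1 knockdowns, recur on many plates.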 Further read-outs or replicates are left out here. No sequences are given here. The record does not give: the time to read-out.

Target gene	mean correlation with KSR1 profile	mean distance from KSR1 profile
MORN1	0.714	1.19
NFASC	-0.497	2.79
ZNF335	-0.14	2.56
PANX2	-0.307	2.42
GFI1	-0.371	5.9
SMS	-0.167	1.74
SH2B2	0.611	1.84
SYT5	-0.0442	2.01
ZMYND8	0.872	3.44
EPHA2	0.106	1.39
GMPPB	-0.516	2.8
SPECC1L	0.176	1.8
WDR74	-0.331	2.87
IGFLR1	-0.155	3
CHMP1B	-0.476	1.92
MED1	-0.0139	2.41
HRH1	0.74	1.54
COG6	-0.679	1.79
LRRC23	-0.198	4.6
ALOX5AP	0.146	1.47
B9D1	-0.44	1.8
OR5V1	0.811	2.9
CYB561D2	0.0973	3.52
CDH16	-0.152	3.53
FAM194C	0.844	1.45
TMEM176B	0.181	1.84
NKG7	-0.121	4
MMP9	0.628	1.64
TMOD1	-0.0509	1.42
GRWD1	0.876	1.69
CYLD	0.255	1.32
ORM1	0.56	1.55
IFNA13	0.428	1.46
MYC	-0.125	2.28

Targets listed so far whose gene name begins with N or n:
Target gene	mean correlation with KSR1 profile	mean distance from KSR1 profile
NFASC	-0.497	2.79
NKG7	-0.121	4
